Experimental findings from patent US6440996B1, “Monomeric and dimeric heterocycles, and therapeutic uses thereof” (priority 1998, dated 2002) are described below.

By UniProt entry, the sequences of proteins in these tests, tags left out.
UniProt P23977, whole entry: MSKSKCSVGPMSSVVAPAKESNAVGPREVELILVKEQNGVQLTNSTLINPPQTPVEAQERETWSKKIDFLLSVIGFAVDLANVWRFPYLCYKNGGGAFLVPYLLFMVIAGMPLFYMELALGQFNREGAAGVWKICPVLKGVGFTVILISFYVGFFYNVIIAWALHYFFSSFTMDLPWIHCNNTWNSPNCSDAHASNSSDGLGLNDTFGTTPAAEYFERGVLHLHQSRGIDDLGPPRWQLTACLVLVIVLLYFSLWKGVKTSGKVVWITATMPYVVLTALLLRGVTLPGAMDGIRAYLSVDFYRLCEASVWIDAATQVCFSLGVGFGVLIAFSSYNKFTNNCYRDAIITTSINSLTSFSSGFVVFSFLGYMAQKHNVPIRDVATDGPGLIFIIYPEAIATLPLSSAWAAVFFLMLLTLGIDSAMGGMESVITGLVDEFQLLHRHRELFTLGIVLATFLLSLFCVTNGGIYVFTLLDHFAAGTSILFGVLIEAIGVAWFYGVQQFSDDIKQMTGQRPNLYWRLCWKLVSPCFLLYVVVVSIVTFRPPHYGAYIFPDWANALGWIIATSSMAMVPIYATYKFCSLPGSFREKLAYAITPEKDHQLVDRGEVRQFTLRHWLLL

The target of this assay is dopamine transporter (Rattus norvegicus, UniProt P23977). The assay can be described thus: [3H]WIN 35,428 binding to rat striatal membranes / dopamine transporter binding (DAT). Conditions: read-out: DAT IC50 (nm); Table 2.

Some entries of the source have several records that differ or are many. This is not the full list of results. An entry can have further records. Results that share an entry do not match, cause unknown; dose, time, organism, isomer or construct need not be as stated for each record.

For orientation: IC50 means the point on the concentration scale where inhibition reaches its midpoint.

With `CCC[C@@H]1CN(C)CC[C@H]1c1ccc(Cl)cc1` (single isomer, unassigned), the IC50 is 17 nM and 55 nM.
